From article PMC3441911 come the findings set out here.

These are yes or no findings as the source states them, for the method shown. Binding seen in cells or lysates may run through a third protein. Some binding calls cover weakened binding; strength is not graded here.

The assay concerns the target NaV 1.4 sodium channel α subunit (rat (endogenous in gastrocnemius muscle)) (UniProt P15390). In words: co-IP; pan-NaV 1.x antibody on protein G dynabeads; gastrocnemius muscle membranes of control and CIM (denervated, dexamethasone 7 days) rats solubilized in 20 mM KPO4 pH 6.5, 180 mM KCl, 1 mM EGTA, 0.5 mM MgCl2, 1% NP40; overnight, 0-4°C; five washes; western blots; IP with blocking peptide as negative control; six separate immunoprecipitations.

Regarding “neuronal nitric oxide synthase (from UniProt P29476 1-1429) (enzyme)”, the binding result is recorded as “binds”.
